Test results taken from patent publication US9259001B2, “5-phenyl-substituted N-(tetrazol-5-yl) aryl carboxylic acid amides and N-(triazol-5-yl) aryl carboxylic acid amides, and use thereof as herbicides” (BAYER INTELLECTUAL PROPERTY GMBH, priority 2011, dated 2016).
Some results were stated once for a whole list of compounds, not compound by compound. At least one compound was matched to its structure with a doubt left.

Key:
Format in all cases: in vivo
Alopecurus myosuroides = test: Pre-emergence herbicidal action against harmful plants; settings: application rate 320 g/ha, visual assessment after 3 weeks
Amaranthus retroflexus = test: as above; settings: application rate 320 g/ha, visual assessment after 3 weeks
Abutilon theophrasti = test: Post-emergence herbicidal action against harmful plants; settings: application rate 80 g/ha, visual assessment after about 3 weeks
Veronica persica = test: as above; settings: application rate 80 g/ha, visual assessment after about 3 weeks
Cyperus serotinus = test: Pre-emergence herbicidal action against harmful plants; settings: application rate 320 g/ha, visual assessment after 3 weeks
Setaria viridis = test: as above; settings: application rate 320 g/ha, visual assessment after 3 weeks

CSc1c(C)cc(C(=O)Nc2nnnn2C)c(Cl)c1C [2-43]
at least 80%: herbicidal activity in percent against Alopecurus myosuroides (Alopecurus myosuroides) | herbicidal activity in percent against Amaranthus retroflexus (Amaranthus retroflexus) | herbicidal action in percent against Abutilon theophrasti (Abutilon theophrasti) | herbicidal action in percent against Veronica persica (Veronica persica)

Cc1cc(C(=O)Nc2nnnn2C)c(C)c(S(C)(=O)=O)c1 [2-03]
at least 80%: herbicidal activity in percent against Alopecurus myosuroides (Alopecurus myosuroides) | herbicidal activity in percent against Amaranthus retroflexus (Amaranthus retroflexus) | herbicidal action in percent against Abutilon theophrasti (Abutilon theophrasti) | herbicidal action in percent against Veronica persica (Veronica persica)

CCn1nnnc1NC(=O)c1cc(C)c(S(C)(=O)=O)c(C)c1Cl [2-48]
at least 80%: herbicidal activity in percent against Alopecurus myosuroides (Alopecurus myosuroides) | herbicidal activity in percent against Amaranthus retroflexus (Amaranthus retroflexus) | herbicidal action in percent against Abutilon theophrasti (Abutilon theophrasti) | herbicidal action in percent against Veronica persica (Veronica persica)

Cc1cc(C(=O)Nc2ncnn2C)c(I)c(S(C)(=O)=O)c1 [1-02]
at least 80%: herbicidal action in percent against Abutilon theophrasti (Abutilon theophrasti) | herbicidal action in percent against Veronica persica (Veronica persica)

CCCn1nnnc1NC(=O)c1cc(C)cc(S(C)(=O)=O)c1Br [2-33]
at least 80%: herbicidal activity in percent against Cyperus serotinus (Cyperus serotinus) | herbicidal activity in percent against Setaria viridis (Setaria viridis) | herbicidal action in percent against Abutilon theophrasti (Abutilon theophrasti) | herbicidal action in percent against Veronica persica (Veronica persica)

Cc1cc(C(=O)Nc2nnnn2C)c(I)c([S+](C)[O-])c1 (stereo not shown) [2-35]
at least 80%: herbicidal action in percent against Abutilon theophrasti (Abutilon theophrasti) | herbicidal action in percent against Veronica persica (Veronica persica)

CSc1cc(Cl)c(C(=O)Nc2nnnn2C)cc1C [2-64]
at least 80%: herbicidal activity in percent against Alopecurus myosuroides (Alopecurus myosuroides) | herbicidal activity in percent against Amaranthus retroflexus (Amaranthus retroflexus) | herbicidal action in percent against Abutilon theophrasti (Abutilon theophrasti) | herbicidal action in percent against Veronica persica (Veronica persica)

Cn1nnnc1NC(=O)c1cc(Cl)c(S(C)(=O)=O)cc1Cl [2-41]
at least 80%: herbicidal action in percent against Abutilon theophrasti (Abutilon theophrasti) | herbicidal action in percent against Veronica persica (Veronica persica)

Cc1cc(C(=O)Nc2nnnn2C)c(C)c([S+](C)[O-])c1 (stereo not shown) [2-02]
at least 80%: herbicidal activity in percent against Alopecurus myosuroides (Alopecurus myosuroides) | herbicidal activity in percent against Amaranthus retroflexus (Amaranthus retroflexus) | herbicidal action in percent against Abutilon theophrasti (Abutilon theophrasti) | herbicidal action in percent against Veronica persica (Veronica persica)

Cn1nnnc1NC(=O)c1cc(Cl)c([S+](C)[O-])cc1Cl (stereo not shown) [2-40]
at least 80%: herbicidal action in percent against Abutilon theophrasti (Abutilon theophrasti) | herbicidal action in percent against Veronica persica (Veronica persica)

CCn1nnnc1NC(=O)c1cc(C)cc([S+](C)[O-])c1Cl (stereo not shown) [2-20]
at least 80%: herbicidal activity in percent against Cyperus serotinus (Cyperus serotinus) | herbicidal activity in percent against Setaria viridis (Setaria viridis) | herbicidal action in percent against Abutilon theophrasti (Abutilon theophrasti) | herbicidal action in percent against Veronica persica (Veronica persica)

CCCn1nnnc1NC(=O)c1cc(C)c(SC)c(C)c1Cl [2-49]
at least 80%: herbicidal activity in percent against Alopecurus myosuroides (Alopecurus myosuroides) | herbicidal activity in percent against Amaranthus retroflexus (Amaranthus retroflexus) | herbicidal action in percent against Abutilon theophrasti (Abutilon theophrasti) | herbicidal action in percent against Veronica persica (Veronica persica)

CCCn1nnnc1NC(=O)c1cc(C)cc([S+](C)[O-])c1Cl (stereo not shown) [2-23]
at least 80%: herbicidal activity in percent against Cyperus serotinus (Cyperus serotinus) | herbicidal activity in percent against Setaria viridis (Setaria viridis) | herbicidal action in percent against Abutilon theophrasti (Abutilon theophrasti) | herbicidal action in percent against Veronica persica (Veronica persica)

Cc1cc(C(=O)Nc2nnnn2C)c(Cl)cc1[S+](C)[O-] (stereo not shown) [2-65]
at least 80%: herbicidal action in percent against Abutilon theophrasti (Abutilon theophrasti) | herbicidal action in percent against Veronica persica (Veronica persica)

CCCn1nnnc1NC(=O)c1cc(C)cc(SC)c1Cl [2-22]
at least 80%: herbicidal activity in percent against Cyperus serotinus (Cyperus serotinus) | herbicidal activity in percent against Setaria viridis (Setaria viridis) | herbicidal action in percent against Abutilon theophrasti (Abutilon theophrasti) | herbicidal action in percent against Veronica persica (Veronica persica)

Cc1cc(C(=O)Nc2nnnn2C)c(C)c(N)c1S(C)(=O)=O [2-60]
at least 80%: herbicidal action in percent against Abutilon theophrasti (Abutilon theophrasti) | herbicidal action in percent against Veronica persica (Veronica persica)

CCn1nnnc1NC(=O)c1cc(C)cc(S(C)(=O)=O)c1Cl [2-21]
at least 80%: herbicidal activity in percent against Alopecurus myosuroides (Alopecurus myosuroides) | herbicidal activity in percent against Amaranthus retroflexus (Amaranthus retroflexus) | herbicidal action in percent against Abutilon theophrasti (Abutilon theophrasti) | herbicidal action in percent against Veronica persica (Veronica persica)

CSc1cc(Cl)c(C(=O)Nc2nnnn2C)cc1Cl [2-63]
at least 80%: herbicidal action in percent against Abutilon theophrasti (Abutilon theophrasti) | herbicidal action in percent against Veronica persica (Veronica persica)

CCn1nnnc1NC(=O)c1cc(C)cc(S(C)(=O)=O)c1C [2-06]
at least 80%: herbicidal activity in percent against Alopecurus myosuroides (Alopecurus myosuroides) | herbicidal activity in percent against Amaranthus retroflexus (Amaranthus retroflexus) | herbicidal action in percent against Abutilon theophrasti (Abutilon theophrasti) | herbicidal action in percent against Veronica persica (Veronica persica)

CCn1nnnc1NC(=O)c1cc(C)cc(SC)c1C [2-04]
at least 80%: herbicidal activity in percent against Alopecurus myosuroides (Alopecurus myosuroides) | herbicidal activity in percent against Amaranthus retroflexus (Amaranthus retroflexus) | herbicidal action in percent against Abutilon theophrasti (Abutilon theophrasti) | herbicidal action in percent against Veronica persica (Veronica persica)

CCn1nnnc1NC(=O)c1cc(C)cc([S+](C)[O-])c1C (stereo not shown) [2-05]
at least 80%: herbicidal activity in percent against Alopecurus myosuroides (Alopecurus myosuroides) | herbicidal activity in percent against Amaranthus retroflexus (Amaranthus retroflexus) | herbicidal action in percent against Abutilon theophrasti (Abutilon theophrasti) | herbicidal action in percent against Veronica persica (Veronica persica)

Cc1cc(C(=O)Nc2ncnn2C)c(Cl)cc1S(C)(=O)=O [No. 1-15]
at least 80%: herbicidal action in percent against Abutilon theophrasti (Abutilon theophrasti) | herbicidal action in percent against Veronica persica (Veronica persica)

CCCn1nnnc1NC(=O)c1cc(C)cc(SC)c1Br [2-31]
at least 80%: herbicidal action in percent against Abutilon theophrasti (Abutilon theophrasti) | herbicidal action in percent against Veronica persica (Veronica persica)

COc1cc(C(=O)Nc2nnnn2C)c(Cl)c(OC)c1SC [2-52]
at least 80%: herbicidal action in percent against Abutilon theophrasti (Abutilon theophrasti) | herbicidal action in percent against Veronica persica (Veronica persica)

CCn1nnnc1NC(=O)c1cc(C)cc(SC)c1Cl [2-19]
at least 80%: herbicidal activity in percent against Alopecurus myosuroides (Alopecurus myosuroides) | herbicidal activity in percent against Amaranthus retroflexus (Amaranthus retroflexus) | herbicidal action in percent against Abutilon theophrasti (Abutilon theophrasti) | herbicidal action in percent against Veronica persica (Veronica persica)

COc1cc(C(=O)Nc2nnnn2C)c(Cl)c(OC)c1S(C)(=O)=O [2-53]
at least 80%: herbicidal action in percent against Abutilon theophrasti (Abutilon theophrasti) | herbicidal action in percent against Veronica persica (Veronica persica)

Cc1cc(C(=O)Nc2ncnn2C)c(Br)c(S(C)(=O)=O)c1 [1-06]
at least 80%: herbicidal activity in percent against Alopecurus myosuroides (Alopecurus myosuroides) | herbicidal activity in percent against Amaranthus retroflexus (Amaranthus retroflexus) | herbicidal action in percent against Abutilon theophrasti (Abutilon theophrasti) | herbicidal action in percent against Veronica persica (Veronica persica)

Cc1cc(C(=O)Nc2ncnn2C)c(Br)c([S+](C)[O-])c1 (stereo not shown) [1-05]
at least 80%: herbicidal action in percent against Abutilon theophrasti (Abutilon theophrasti) | herbicidal action in percent against Veronica persica (Veronica persica)

CSc1cc(C)cc(C(=O)Nc2nnnn2C)c1C [2-01]
at least 80%: herbicidal activity in percent against Alopecurus myosuroides (Alopecurus myosuroides) | herbicidal activity in percent against Amaranthus retroflexus (Amaranthus retroflexus) | herbicidal action in percent against Abutilon theophrasti (Abutilon theophrasti) | herbicidal action in percent against Veronica persica (Veronica persica)

Cc1cc(C(=O)Nc2ncnn2C)c(I)c([S+](C)[O-])c1 (stereo not shown) [1-03]
at least 80%: herbicidal action in percent against Abutilon theophrasti (Abutilon theophrasti) | herbicidal action in percent against Veronica persica (Veronica persica)
